Test results reported in the supplement of paper PMC7666118.
Some of the results follow.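 How the source made its calls: active = dose-dependent thermal stabilisation significant by F-test of dose-response against flat model at 10% FDR; inactive = not significant.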

Protein sequences, listed by entry. Tags and fused reporters are not part of them. Lines headed by an entry give the natural chain unless they say otherwise; changes in a name come on top.
UniProt Q15773: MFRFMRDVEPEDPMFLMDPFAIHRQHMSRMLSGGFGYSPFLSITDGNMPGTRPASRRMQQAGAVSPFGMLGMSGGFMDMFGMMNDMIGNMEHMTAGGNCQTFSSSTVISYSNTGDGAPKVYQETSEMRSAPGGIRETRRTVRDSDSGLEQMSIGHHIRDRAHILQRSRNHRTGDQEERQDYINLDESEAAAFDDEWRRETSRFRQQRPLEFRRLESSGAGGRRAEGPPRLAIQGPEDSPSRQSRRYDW
UniProt Q8N108: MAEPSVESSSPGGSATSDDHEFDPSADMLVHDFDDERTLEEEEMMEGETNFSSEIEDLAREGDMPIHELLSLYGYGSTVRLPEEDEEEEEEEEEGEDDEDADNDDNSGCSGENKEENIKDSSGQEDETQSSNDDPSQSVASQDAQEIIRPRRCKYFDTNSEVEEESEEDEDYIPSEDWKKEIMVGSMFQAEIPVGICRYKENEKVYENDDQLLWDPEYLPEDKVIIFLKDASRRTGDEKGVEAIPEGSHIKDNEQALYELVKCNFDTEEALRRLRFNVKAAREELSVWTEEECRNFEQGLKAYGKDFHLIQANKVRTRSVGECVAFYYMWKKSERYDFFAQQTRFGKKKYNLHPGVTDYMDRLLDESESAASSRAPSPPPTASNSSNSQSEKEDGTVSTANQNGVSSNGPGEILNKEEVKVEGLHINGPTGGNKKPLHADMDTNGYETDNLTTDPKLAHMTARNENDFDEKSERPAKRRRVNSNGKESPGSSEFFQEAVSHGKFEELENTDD
UniProt P27448: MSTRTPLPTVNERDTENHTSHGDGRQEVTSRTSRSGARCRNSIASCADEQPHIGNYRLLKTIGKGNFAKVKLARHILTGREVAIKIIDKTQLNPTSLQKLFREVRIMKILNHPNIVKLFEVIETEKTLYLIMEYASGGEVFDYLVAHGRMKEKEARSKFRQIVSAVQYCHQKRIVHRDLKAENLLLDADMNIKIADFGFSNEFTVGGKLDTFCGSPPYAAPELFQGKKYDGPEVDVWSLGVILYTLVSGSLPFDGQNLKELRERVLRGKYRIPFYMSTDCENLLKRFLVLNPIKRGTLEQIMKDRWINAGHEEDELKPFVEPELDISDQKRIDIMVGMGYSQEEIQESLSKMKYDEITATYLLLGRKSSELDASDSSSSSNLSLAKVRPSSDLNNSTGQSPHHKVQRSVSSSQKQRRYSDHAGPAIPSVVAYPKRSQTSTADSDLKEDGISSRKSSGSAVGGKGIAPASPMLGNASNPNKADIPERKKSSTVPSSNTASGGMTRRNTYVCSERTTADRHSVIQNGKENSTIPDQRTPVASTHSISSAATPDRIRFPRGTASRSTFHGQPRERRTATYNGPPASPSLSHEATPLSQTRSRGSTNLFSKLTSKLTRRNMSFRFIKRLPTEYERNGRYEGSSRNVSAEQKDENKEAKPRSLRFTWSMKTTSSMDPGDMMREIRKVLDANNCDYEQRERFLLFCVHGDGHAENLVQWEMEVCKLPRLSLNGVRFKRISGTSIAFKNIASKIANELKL
UniProt P14174: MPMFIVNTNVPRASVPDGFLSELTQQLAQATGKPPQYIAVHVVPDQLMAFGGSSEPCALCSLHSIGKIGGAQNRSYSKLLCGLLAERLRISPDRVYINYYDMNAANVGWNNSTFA
UniProt Q9BWT6: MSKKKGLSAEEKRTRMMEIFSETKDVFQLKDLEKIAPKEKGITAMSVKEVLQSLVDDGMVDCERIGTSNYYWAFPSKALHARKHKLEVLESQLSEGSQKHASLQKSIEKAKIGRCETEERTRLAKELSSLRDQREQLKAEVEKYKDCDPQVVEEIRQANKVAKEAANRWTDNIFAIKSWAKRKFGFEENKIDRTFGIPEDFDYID
UniProt Q7L2J0: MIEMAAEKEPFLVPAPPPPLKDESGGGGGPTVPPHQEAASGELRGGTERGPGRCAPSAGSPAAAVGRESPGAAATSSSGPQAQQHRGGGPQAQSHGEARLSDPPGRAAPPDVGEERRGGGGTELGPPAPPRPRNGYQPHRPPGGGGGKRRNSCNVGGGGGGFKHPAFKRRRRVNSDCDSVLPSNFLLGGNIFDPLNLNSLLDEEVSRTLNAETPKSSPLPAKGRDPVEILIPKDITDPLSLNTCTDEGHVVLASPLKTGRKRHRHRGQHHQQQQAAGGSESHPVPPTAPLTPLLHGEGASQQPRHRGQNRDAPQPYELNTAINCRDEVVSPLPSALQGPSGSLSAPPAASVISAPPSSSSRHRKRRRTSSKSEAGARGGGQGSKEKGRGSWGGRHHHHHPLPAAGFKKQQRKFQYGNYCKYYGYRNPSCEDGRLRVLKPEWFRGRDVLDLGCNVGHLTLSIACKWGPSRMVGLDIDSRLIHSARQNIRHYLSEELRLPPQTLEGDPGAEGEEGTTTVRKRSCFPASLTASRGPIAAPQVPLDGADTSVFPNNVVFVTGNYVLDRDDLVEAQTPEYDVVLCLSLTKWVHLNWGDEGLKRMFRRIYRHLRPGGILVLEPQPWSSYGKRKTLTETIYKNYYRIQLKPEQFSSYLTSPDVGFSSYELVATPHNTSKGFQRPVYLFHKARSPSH
UniProt Q9NZL9, whole entry: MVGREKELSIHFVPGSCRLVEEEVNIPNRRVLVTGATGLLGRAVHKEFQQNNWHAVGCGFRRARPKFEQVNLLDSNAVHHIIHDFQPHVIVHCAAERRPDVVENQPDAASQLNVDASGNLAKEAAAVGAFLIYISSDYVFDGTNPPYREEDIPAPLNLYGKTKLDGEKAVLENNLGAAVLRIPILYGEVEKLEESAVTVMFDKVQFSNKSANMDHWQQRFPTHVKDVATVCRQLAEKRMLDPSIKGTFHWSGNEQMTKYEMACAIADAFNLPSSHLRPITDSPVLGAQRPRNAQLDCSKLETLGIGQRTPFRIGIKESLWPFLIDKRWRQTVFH
UniProt Q14149: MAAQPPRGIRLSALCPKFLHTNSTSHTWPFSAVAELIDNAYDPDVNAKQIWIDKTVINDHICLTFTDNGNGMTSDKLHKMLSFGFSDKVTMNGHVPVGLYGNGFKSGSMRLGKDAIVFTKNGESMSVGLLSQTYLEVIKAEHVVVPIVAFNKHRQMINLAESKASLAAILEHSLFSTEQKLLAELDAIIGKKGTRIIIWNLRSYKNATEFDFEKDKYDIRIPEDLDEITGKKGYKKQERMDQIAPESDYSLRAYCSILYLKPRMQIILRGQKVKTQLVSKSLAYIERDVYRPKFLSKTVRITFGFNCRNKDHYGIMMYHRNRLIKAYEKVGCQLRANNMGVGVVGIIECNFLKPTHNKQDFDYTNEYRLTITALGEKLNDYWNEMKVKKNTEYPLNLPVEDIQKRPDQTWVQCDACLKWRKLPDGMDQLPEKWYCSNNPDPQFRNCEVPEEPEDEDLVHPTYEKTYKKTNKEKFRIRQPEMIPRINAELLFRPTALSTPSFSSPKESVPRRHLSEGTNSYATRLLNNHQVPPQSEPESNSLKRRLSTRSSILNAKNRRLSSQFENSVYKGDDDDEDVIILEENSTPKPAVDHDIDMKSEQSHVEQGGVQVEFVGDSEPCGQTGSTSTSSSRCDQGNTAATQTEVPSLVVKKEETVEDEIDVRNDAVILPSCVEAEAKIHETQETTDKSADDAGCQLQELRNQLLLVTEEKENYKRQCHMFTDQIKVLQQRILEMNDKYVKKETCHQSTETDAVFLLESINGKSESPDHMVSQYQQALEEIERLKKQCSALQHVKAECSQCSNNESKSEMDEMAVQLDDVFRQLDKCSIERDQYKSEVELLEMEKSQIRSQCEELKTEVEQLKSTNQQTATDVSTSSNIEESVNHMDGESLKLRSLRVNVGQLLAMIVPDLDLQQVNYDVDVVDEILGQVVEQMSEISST
UniProt Q9HCE1: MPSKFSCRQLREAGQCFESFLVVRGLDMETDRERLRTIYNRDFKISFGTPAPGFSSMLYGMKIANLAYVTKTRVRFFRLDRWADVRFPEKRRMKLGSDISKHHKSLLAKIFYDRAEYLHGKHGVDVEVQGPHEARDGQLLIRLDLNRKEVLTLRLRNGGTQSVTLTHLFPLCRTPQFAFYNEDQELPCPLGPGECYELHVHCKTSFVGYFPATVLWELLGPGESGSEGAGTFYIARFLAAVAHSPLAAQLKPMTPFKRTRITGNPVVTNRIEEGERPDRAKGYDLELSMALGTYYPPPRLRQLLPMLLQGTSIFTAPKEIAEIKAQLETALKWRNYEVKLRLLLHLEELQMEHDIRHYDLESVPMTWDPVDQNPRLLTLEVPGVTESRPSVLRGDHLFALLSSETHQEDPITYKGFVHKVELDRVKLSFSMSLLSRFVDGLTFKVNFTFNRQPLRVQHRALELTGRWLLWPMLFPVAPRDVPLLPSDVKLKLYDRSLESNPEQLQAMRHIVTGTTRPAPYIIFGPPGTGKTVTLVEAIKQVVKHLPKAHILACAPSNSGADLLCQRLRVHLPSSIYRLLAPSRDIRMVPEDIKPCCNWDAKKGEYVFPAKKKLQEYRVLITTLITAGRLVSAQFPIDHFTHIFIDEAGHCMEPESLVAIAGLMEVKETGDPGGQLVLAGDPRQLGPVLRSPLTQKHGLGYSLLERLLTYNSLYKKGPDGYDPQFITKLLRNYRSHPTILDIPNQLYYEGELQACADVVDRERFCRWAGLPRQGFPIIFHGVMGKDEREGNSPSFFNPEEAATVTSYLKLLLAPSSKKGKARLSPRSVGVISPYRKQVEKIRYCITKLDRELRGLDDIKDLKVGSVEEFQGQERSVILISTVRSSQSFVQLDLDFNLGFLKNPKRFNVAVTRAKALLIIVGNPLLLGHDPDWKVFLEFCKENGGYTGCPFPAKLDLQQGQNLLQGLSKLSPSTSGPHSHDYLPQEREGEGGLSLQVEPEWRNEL
UniProt Q9UBP6: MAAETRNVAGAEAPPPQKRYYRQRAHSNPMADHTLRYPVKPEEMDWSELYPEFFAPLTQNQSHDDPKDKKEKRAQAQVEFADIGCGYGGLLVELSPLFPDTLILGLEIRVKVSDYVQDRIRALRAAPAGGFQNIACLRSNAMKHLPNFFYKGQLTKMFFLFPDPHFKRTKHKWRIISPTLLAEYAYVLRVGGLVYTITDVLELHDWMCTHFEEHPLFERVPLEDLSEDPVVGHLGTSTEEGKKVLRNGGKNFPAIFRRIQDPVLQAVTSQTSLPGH
UniProt P33241, whole entry: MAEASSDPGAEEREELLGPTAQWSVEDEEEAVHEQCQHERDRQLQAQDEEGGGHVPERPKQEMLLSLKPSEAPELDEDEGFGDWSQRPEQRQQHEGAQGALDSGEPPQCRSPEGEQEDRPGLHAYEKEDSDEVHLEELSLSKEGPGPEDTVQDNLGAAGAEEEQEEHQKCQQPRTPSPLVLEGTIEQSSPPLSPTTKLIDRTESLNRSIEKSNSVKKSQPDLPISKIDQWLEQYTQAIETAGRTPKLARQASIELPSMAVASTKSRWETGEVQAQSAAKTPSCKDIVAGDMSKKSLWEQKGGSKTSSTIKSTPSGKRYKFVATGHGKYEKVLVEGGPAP
UniProt P27816: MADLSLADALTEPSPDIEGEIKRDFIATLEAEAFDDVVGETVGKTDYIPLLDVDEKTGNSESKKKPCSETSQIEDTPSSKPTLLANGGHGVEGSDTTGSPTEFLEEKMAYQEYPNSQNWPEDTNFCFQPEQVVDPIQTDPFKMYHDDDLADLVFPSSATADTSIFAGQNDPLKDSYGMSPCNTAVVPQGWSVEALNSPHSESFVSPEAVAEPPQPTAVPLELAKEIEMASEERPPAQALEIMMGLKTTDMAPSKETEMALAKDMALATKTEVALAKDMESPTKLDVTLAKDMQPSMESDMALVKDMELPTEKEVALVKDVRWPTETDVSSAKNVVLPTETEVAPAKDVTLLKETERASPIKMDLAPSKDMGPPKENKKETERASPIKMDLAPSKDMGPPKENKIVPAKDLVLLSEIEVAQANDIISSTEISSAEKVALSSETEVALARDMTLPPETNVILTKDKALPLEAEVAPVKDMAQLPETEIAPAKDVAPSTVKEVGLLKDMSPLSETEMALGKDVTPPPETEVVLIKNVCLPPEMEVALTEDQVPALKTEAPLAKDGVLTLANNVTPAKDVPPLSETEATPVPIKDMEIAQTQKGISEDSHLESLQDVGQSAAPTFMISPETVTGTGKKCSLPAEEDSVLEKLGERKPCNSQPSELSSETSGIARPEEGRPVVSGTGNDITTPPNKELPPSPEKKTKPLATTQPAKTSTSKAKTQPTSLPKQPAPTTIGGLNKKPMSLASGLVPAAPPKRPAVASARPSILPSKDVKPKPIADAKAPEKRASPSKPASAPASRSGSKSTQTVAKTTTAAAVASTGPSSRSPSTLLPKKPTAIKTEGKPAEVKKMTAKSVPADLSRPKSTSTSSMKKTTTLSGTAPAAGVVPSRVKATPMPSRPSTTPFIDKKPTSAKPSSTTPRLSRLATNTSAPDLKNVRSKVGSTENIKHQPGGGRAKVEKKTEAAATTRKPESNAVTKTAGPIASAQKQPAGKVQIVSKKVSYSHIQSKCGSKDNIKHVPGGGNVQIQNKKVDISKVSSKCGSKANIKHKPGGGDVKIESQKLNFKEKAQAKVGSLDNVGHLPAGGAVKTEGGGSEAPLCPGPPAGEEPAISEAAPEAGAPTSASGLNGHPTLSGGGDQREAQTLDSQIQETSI

Compound: Nc1nc2c(ncn2[C@@H]2O[C@H](COP(=O)(O)OP(=O)(O)OP(=O)(O)O)[C@@H](O)[C@H]2O)c(=O)[nH]1
Experiment: dose-dependent thermal stabilisation call (2D-TPP, DLPTP, 10% FDR) (binary (1 = stabilised)); higher = stabilised by the compound
Conditions: system: Jurkat gel-filtered lysate; concentration range 1-500 µM

Row | Target | dose-dependent thermal stabilisation call
1 | MTHFD1 (UniProt P11586) | inactive: 0
2 | LYSMD1 (UniProt Q96S90) | inactive: 0
3 | MLF2 (UniProt Q15773) | inactive: 0
4 | MFAP1 (UniProt P55081) | inactive: 0
5 | LSM7 (UniProt Q9UK45) | inactive: 0
6 | MAGED2 (UniProt Q9UNF1) | inactive: 0
7 | MIER1 (UniProt Q8N108) | inactive: 0
8 | MED20 (UniProt Q9H944) | inactive: 0
9 | MARK3 (UniProt P27448) | active: 1
10 | MIF (UniProt P14174) | inactive: 0
11 | MND1 (UniProt Q9BWT6) | inactive: 0
12 | LTV1 (UniProt Q96GA3) | inactive: 0
13 | MEPCE (UniProt Q7L2J0) | inactive: 0
14 | MAT2B (UniProt Q9NZL9) | inactive: 0
15 | MSANTD2 (UniProt Q6P1R3) | inactive: 0
16 | MED18 (UniProt Q9BUE0) | inactive: 0
17 | MORC3 (UniProt Q14149) | inactive: 0
18 | LSM6 (UniProt P62312) | inactive: 0
19 | MINPP1 (UniProt Q9UNW1) | inactive: 0
20 | MOV10 (UniProt Q9HCE1) | inactive: 0
21 | METTL1 (UniProt Q9UBP6) | active: 1
22 | MAP3K4 (UniProt Q9Y6R4) | inactive: 0
23 | MAX (UniProt P61244) | inactive: 0
24 | MED6 (UniProt O75586) | inactive: 0
25 | LSP1 (UniProt P33241) | inactive: 0
26 | MCTS1 (UniProt Q9ULC4) | inactive: 0
27 | MAP4 (UniProt P27816) | inactive: 0

Nos. 4 through 8 from above:
Row | Target | dose-dependent thermal stabilisation call
4 | MFAP1 (UniProt P55081) | inactive: 0
5 | LSM7 (UniProt Q9UK45) | inactive: 0
6 | MAGED2 (UniProt Q9UNF1) | inactive: 0
7 | MIER1 (UniProt Q8N108) | inactive: 0
8 | MED20 (UniProt Q9H944) | inactive: 0
